Reference: publication doi:10.1101/2021.08.25.457680
These are yes or no findings as the source states them, for the method shown. For some of these results: Binding seen in cells or lysates may run through a third protein. Some entries that bind do so weakly or less than the wild type. For some of these results: Where a sequence is shown, tags or fusion partners need not be part of it.

Chains of the proteins cited; added tags and fusions are not shown.
UniProt O00560, whole entry: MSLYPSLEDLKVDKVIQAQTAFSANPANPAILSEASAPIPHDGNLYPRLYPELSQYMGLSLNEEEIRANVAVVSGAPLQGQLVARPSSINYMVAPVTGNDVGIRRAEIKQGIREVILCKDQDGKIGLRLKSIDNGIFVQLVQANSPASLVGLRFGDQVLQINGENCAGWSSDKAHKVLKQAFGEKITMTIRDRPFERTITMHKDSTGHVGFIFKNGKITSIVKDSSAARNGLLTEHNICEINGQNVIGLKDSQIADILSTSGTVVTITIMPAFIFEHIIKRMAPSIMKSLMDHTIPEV

T1: SDCBP2 (syntenin-2) expressed in transfected HEK293 cells (human) (UniProt Q9H190)
T1 sequence: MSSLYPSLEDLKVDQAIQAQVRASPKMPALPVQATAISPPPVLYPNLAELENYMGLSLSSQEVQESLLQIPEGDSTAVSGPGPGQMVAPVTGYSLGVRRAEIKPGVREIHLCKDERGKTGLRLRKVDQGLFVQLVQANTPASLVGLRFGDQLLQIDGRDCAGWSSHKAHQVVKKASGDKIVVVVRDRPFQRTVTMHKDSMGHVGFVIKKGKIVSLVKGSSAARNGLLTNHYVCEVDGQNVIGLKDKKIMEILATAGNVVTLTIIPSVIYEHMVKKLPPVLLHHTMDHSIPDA

B1: SDCBP2 fused to Gal4 activating domain (AD) (protein, UniProt Q9H190 1-292)
chain: MSSLYPSLEDLKVDQAIQAQVRASPKMPALPVQATAISPPPVLYPNLAELENYMGLSLSSQEVQESLLQIPEGDSTAVSGPGPGQMVAPVTGYSLGVRRAEIKPGVREIHLCKDERGKTGLRLRKVDQGLFVQLVQANTPASLVGLRFGDQLLQIDGRDCAGWSSHKAHQVVKKASGDKIVVVVRDRPFQRTVTMHKDSMGHVGFVIKKGKIVSLVKGSSAARNGLLTNHYVCEVDGQNVIGLKDKKIMEILATAGNVVTLTIIPSVIYEHMVKKLPPVLLHHTMDHSIPDA

What was measured:
[1] = target: Tax-1 fused to the Gal4 DNA-binding (DB) domain (HTLV-1) (UniProt P03409); assay: two-hybrid
[2] = target: Flag-Syntenin (Flag-SDCBP, syntenin-1) (human) (UniProt O00560); assay: co-IP
[3] = target: T1, SDCBP2 (syntenin-2) expressed in transfected HEK293 cells (human); assay: co-IP

Molecule | binding [1] | binding [2] | binding [3]
SDCBP fused to Gal4 activating domain (AD) (from UniProt O00560 1-298) | binds | – | –
Tax-1 expressed in transfected HEK293 cells (from UniProt P03409 1-353) | – | binds | binds
B1 | binds | – | –
